Results: patent US20220162285A1
No constants are given. Whether binding was seen depends on the method and setting. Some binding calls cover weakened binding; strength is not graded here.

Tests used:
[1] = target: T1, recombinant human CD20 protein (Abcam) (human) (UniProt P11836); experiment: direct binding ELISA on coated recombinant CD20 (FIG. 26D)
T1 sequence (looked up): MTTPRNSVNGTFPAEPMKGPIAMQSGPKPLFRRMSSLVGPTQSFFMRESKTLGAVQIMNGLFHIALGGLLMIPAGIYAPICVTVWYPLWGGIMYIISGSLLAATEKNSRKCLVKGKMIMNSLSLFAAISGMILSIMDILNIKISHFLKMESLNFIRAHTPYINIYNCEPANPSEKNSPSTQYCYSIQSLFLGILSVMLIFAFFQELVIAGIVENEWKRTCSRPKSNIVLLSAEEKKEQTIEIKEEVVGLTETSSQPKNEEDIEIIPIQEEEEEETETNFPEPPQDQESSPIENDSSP

[2] = target: T1, recombinant human CD20 protein (Abcam) (human); experiment: direct binding ELISA on coated CD20, side-by-side comparison of valencies

binding [1]: binds
binding [2]: binds
B1: Quad 53 Mon (monovalent anti-CD20 scFv control) (scFv)
scFv: DIVLTQSPAILSASPGEKVTMTCRASSSVNYMDWYQKKPGSSPKPWIYATSNLASGVPARFSGSGSGTSYSLTISRVEAEDAATYYCQQWSFNPPTFGGGTKLEIKGSTSGGGGSGGGGSGGGGSSEVQLQQSGAELVKPGASVKMSCKASGYTFTSYNMHWVKQTPGQGLEWIGAIYPGNGDTSYNQKFKGKATLTADKSSSTAYMQLSSLTSEDSADYYCARSNYYGSSYWFFDVWGAGTTVTVSS
